{
  "sequences": {"note": "The chains behind the UniProt entries cited, without tags or fusion partners.", "UniProt Q13263": "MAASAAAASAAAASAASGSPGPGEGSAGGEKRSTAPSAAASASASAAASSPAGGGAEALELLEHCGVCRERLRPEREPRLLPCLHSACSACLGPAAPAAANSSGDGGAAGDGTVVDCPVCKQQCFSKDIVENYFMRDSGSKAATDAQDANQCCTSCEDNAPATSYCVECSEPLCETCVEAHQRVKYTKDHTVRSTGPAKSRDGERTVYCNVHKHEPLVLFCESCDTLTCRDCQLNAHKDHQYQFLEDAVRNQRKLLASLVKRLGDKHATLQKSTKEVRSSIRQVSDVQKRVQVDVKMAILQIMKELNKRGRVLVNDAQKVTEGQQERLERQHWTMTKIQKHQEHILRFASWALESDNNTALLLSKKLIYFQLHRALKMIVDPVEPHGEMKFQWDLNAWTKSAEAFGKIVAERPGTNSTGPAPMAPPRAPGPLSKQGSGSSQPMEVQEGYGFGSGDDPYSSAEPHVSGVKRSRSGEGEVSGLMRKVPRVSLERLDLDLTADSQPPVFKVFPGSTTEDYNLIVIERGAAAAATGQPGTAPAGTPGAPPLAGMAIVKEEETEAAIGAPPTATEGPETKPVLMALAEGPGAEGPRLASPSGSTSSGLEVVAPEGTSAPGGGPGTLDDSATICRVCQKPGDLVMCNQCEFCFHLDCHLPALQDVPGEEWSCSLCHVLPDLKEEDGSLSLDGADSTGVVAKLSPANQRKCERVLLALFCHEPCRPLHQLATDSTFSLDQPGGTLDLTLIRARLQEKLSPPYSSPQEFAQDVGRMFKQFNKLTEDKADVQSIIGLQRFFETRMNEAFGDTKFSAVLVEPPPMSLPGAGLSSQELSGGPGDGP", "UniProt P63104": "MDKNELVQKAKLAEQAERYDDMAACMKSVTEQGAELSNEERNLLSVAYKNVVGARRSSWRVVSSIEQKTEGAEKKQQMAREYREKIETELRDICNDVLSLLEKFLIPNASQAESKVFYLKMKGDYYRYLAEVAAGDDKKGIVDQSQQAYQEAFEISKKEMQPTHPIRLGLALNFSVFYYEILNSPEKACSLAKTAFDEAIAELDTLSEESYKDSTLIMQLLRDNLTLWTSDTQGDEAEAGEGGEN"},
  "source": "paper PMC11978164",
  "biological_target": "TRIM28 (human (endogenous in ARP1, RPMI 8226, U266)) (UniProt Q13263)",
  "assay": "co-IP; endogenous proteins; 2 x 10^7 ARP1, RPMI 8226 and U266 cells lysed in NP-40 lysis buffer with protease inhibitors; overnight at 4 °C with anti-TRIM28 or anti-14-3-3ζ, protein A/G beads, western blot",
  "note": "These are yes or no findings as the source states them, for the method shown. In cells and extracts the contact can be indirect. Some entries that bind do so weakly or less than the wild type.",
  "data": [
    {"substance": "14-3-3ζ (from UniProt P63104 1-245)", "values": [
      {"measurement": "binding", "value": "binds"}
    ]}
  ]
}
